PubChem BioAssay AID1224830, NIAID | 2016

- Screen: 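Host factors that control LPS-induced TNF expression in human macrophages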 (primary screen)
- System: human THP-1 monocytic leukaemia cells, TNF dual-luciferase reporter clone, PMA-differentiated to macrophage-like cells
- Reagents: siRNA pool against human genes, 50 nM
- Timing: LPS for 4 h, given about 3 days after siRNA transfection
- Challenge: bacterial LPS (TLR4 ligand), 10 ng/ml
- Detection: 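Ratio of firefly to renilla light, scaled to the plate median and expressed as a robust z-score per replicate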
- Scale: TNF reporter robust z-score: higher = stronger TNF reporter response to LPS
- Call rule: 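a well is active when its z-score exceeds 2.8 or falls below -1.5; control wells carry no call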
Shown is one part, drawn at random, of about 18,000 reagents tested. About 2,900 of them (16%) count as active. 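Calls are made per well; low scores hint the gene aids the LPS response, high scores that it dampens it.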 A number with no mark means an inactive call. Repeated entries: four replicate wells of each siRNA pool.

TMEM39B (transmembrane protein 39B)
- TNF reporter robust z-score: -0.2

TMEM39B (transmembrane protein 39B)
- TNF reporter robust z-score: 0.63

TMEM39B (transmembrane protein 39B)
- TNF reporter robust z-score: -0.09

TMEM39B (transmembrane protein 39B)
- TNF reporter robust z-score: 0.35

PRR27 (proline rich 27)
- TNF reporter robust z-score: 0.48

PRR27 (proline rich 27)
- TNF reporter robust z-score: -0.12

PRR27 (proline rich 27)
- TNF reporter robust z-score: 0.13

USP31 (ubiquitin specific peptidase 31)
- TNF reporter robust z-score: -0.27

USP31 (ubiquitin specific peptidase 31)
- TNF reporter robust z-score: -0.22

USP31 (ubiquitin specific peptidase 31)
- TNF reporter robust z-score: -0.14

USP31 (ubiquitin specific peptidase 31)
- TNF reporter robust z-score: 0.36

PDXK (pyridoxal kinase)
- TNF reporter robust z-score: -0.77

PDXK (pyridoxal kinase)
- TNF reporter robust z-score: -0.05

PDXK (pyridoxal kinase)
- TNF reporter robust z-score: 0.49

PDXK (pyridoxal kinase)
- TNF reporter robust z-score: -0.16

BDKRB2 (bradykinin receptor B2)
- TNF reporter robust z-score: -0.13

BDKRB2 (bradykinin receptor B2)
- TNF reporter robust z-score: -0.7

BDKRB2 (bradykinin receptor B2)
- TNF reporter robust z-score: -0.62

BDKRB2 (bradykinin receptor B2)
- TNF reporter robust z-score: -0.79

H4C13 (H4 clustered histone 13)
- TNF reporter robust z-score: -0.01

H4C13 (H4 clustered histone 13)
- TNF reporter robust z-score: -0.64

H4C13 (H4 clustered histone 13)
- TNF reporter robust z-score: -0.2

H4C13 (H4 clustered histone 13)
- TNF reporter robust z-score: -1.01

FAM163B (family with sequence similarity 163 member B)
- TNF reporter robust z-score: 0.22

FAM163B (family with sequence similarity 163 member B)
- TNF reporter robust z-score: 1.1

FAM163B (family with sequence similarity 163 member B)
- TNF reporter robust z-score: 0.44

FAM163B (family with sequence similarity 163 member B)
- TNF reporter robust z-score: 1.03

MB (myoglobin)
- TNF reporter robust z-score: -0.67

MB (myoglobin)
- TNF reporter robust z-score: -0.44

MB (myoglobin)
- TNF reporter robust z-score: -0.38

MB (myoglobin)
- TNF reporter robust z-score: 0.13

VCX2 (variable charge X-linked 2)
- TNF reporter robust z-score: -0.98

VCX2 (variable charge X-linked 2)
- TNF reporter robust z-score: -1.59 (active)

VCX2 (variable charge X-linked 2)
- TNF reporter robust z-score: -0.79

VCX2 (variable charge X-linked 2)
- TNF reporter robust z-score: -0.89

KRTAP21-2 (keratin associated protein 21-2)
- TNF reporter robust z-score: -0.55

KRTAP21-2 (keratin associated protein 21-2)
- TNF reporter robust z-score: -0.52

KRTAP21-2 (keratin associated protein 21-2)
- TNF reporter robust z-score: -1.54 (active)

EPHB6 (EPH receptor B6)
- TNF reporter robust z-score: -1.18

EPHB6 (EPH receptor B6)
- TNF reporter robust z-score: -0.98

EPHB6 (EPH receptor B6)
- TNF reporter robust z-score: -1.29

EPHB6 (EPH receptor B6)
- TNF reporter robust z-score: 0.4

CHST12 (carbohydrate sulfotransferase 12)
- TNF reporter robust z-score: -1.23

CHST12 (carbohydrate sulfotransferase 12)
- TNF reporter robust z-score: -1.55 (active)

CHST12 (carbohydrate sulfotransferase 12)
- TNF reporter robust z-score: -1.73 (active)

ZNF485 (zinc finger protein 485)
- TNF reporter robust z-score: 1.66

ZNF485 (zinc finger protein 485)
- TNF reporter robust z-score: 2.78

ZNF485 (zinc finger protein 485)
- TNF reporter robust z-score: -0.18

ZNF485 (zinc finger protein 485)
- TNF reporter robust z-score: 0.69
